Measurements reported in US20260049141A1.
These are yes or no findings as the source states them, for the method shown. Some entries that bind do so weakly or less than the wild type. Where a sequence is shown, tags or fusion partners need not be part of it.

By UniProt entry, the sequences of proteins in these tests, tags left out. Where a name states a change or a piece, a line headed by the entry shows the natural chain unless it says otherwise. Residues count along the entry.
UniProt P10747, residues 19-152: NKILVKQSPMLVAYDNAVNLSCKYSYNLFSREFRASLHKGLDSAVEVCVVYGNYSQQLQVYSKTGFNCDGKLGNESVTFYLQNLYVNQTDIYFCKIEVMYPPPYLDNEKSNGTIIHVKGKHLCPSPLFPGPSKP
UniProt Q15116, residues 25-167: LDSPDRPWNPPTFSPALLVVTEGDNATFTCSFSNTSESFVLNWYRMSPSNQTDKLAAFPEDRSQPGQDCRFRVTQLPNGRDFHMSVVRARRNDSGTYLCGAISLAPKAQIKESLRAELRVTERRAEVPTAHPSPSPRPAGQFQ

B1: anti-PD-1/anti-CD28 multifunctional molecule Format A1 (monovalent anti-PD-1 Fab fused to a monovalent anti-CD28 Fab CrossMAb, clone 1) (bispecific antibody, V domains shown)
VH 1: QIQLVQSGSELKKPGASVKVSCKASGYTFTHYAMNWVRQAPGQGLEWMGWINTNTGEPTYAQGFTGRFVFSLDTSVSTAYLQISSLKAEDTAVYYCAREREPGMDNWGQGTLVTVSS
VL 1: DVVMTQSPLSLPVTLGQPASISCRSSQSLVHANTNTYLEWYQQRPGQSPRLLIYKVSNRFSGVPDRFSGSGSGTDFTLKISRVEAEDVGVYYCFQGTHVPNTFGQGTKLEIK
VH 2: QVKLQESGPGLVAPSQSLSITCTVSGFSLTSYGVYWVRQPPGKGLEWLGVIWAGGSTNYNSALMSRLSISKDNSKSQVFLKMNSLQTDDTAMYYCARDHYGSYGDYYAMDYWGQGTTVTVSS
VL 2: DIVLTQSPASLAVSLGQRATISCRASESVEYYDTSLMQWYQQKPGQPPKLLIYAASSVESGVPARFSGSGSGTDFSLNIHPVEEDDIAMYFCQQSRKVPWTFGGGTKLEIK
B2: anti-PD-1/anti-CD28 multifunctional molecule Format B3 (scFv anti-CD28 fused to C-terminal of monovalent anti-PD1, clone 1) (bispecific antibody, V domains shown)
VH 1: B1 VH 1
VL 1: B1 VL 1
VH 2: B1 VH 2
VL 2: B1 VL 2
B3: anti-PD-1/anti-CD28 multifunctional molecule Format C1 (bivalent anti-PD-1 antibody fused to an anti-CD28 scFv, clone 1) (bispecific antibody, V domains shown)
VH 1: B1 VH 1
VL 1: B1 VL 1
VH 2: B1 VH 2
VL 2: B1 VL 2
B4: anti-PD-1/anti-CD28 multifunctional molecule Format C2 (bivalent anti-PD-1 antibody fused to an anti-CD28 scFv, clone 1) (bispecific antibody, V domains shown)
VH 1: B1 VH 1
VL 1: B1 VL 1
VH 2: B1 VH 2
VL 2: B1 VL 2
B5: anti-PD-1/anti-CD28 multifunctional molecule Format C5 (scFv anti-CD28 fused to C-terminal of bivalent anti-PD1, clone 1) (bispecific antibody, V domains shown)
VH 1: B1 VH 1
VL 1: B1 VL 1
VH 2: B1 VH 2
VL 2: B1 VL 2

Assays:
[1] = molecular target: Recombinant human CD28 (bio-techne, reference 342-CD-200) (human) (UniProt P10747); assay: MSD binding assay, recombinant human CD28 immobilized (FIG. 6C)
[2] = molecular target: Biotinylated human PD-1 (AcroBiosystems, reference EP-101) (human) (UniProt Q15116); assay: competitive ELISA: recombinant human PD-L1 immobilized, antibody mixed with a fixed concentration of biotinylated human PD-1, streptavidin-peroxidase; % = 100-((DO450*100)/DO450 no Ab); N=2; blocked ligand PD-L1
[3] = molecular target: Recombinant human PD-1 (Sino Biologicals, reference 10377-H08H) (human) (UniProt Q15116); assay: ELISA: recombinant human PD-1 immobilized, anti-human Fc-peroxidase, TMB, 450 nm; normalized to anti-PD-1*1 at 20 nM = 100%; N=2 [panel 'Monovalent Anti PD-1']
[4] = molecular target: Recombinant human CD28 (bio-techne, reference 342-CD-200) (human) (UniProt P10747); assay: MSD: biotinylated recombinant human CD28 immobilized on streptavidin coated plate, detection with anti-human Fc antibody coupled to SulfoTag
[5] = molecular target: Recombinant human PD-1 (Sino Biologicals, reference 10377-H08H) (human) (UniProt Q15116); assay: ELISA, recombinant human PD-1 coated (FIG. 6A)
[6] = molecular target: Recombinant human PD-1 (Sino Biologicals, reference 10377-H08H) (human) (UniProt Q15116); assay: ELISA: recombinant human PD-1 immobilized, anti-human Fc-peroxidase, TMB, 450 nm; normalized to anti-PD-1*2 at 20 nM = 100%; N=2 [panel 'Bivalent Anti PD-1']

| Binder | binding [1] | binding [2] | binding [3] | binding [4] | binding [5] | binding [6] |
| --- | --- | --- | --- | --- | --- | --- |
| B1 | binds | binds | binds | binds | binds | – |
| B2 | – | binds | – | – | – | – |
| B3 | – | binds | – | – | binds | binds |
| B4 | – | binds | – | – | binds | binds |
| B5 | – | binds | – | – | – | – |
